Results: article PMC7383879, “HSI2/VAL1 and HSL1/VAL2 function redundantly to repress DOG1 expression in Arabidopsis seeds and seedlings”
For at least one entry, the source does not settle the construct or the ends of the probe. For some assays here: No signal at the amounts used counts as a negative. For some assays here: A weaker result is weaker than the reference pair of the same experiment. For some assays here: Where a protein sequence is shown, tags need not be part of it.

Tests used:
[1] = target: T1, HSI2 B3 domain (B3HSI2) (Arabidopsis thaliana) (UniProt Q8W4L5); experiment: EMSA; conditions: 10 mM Tris pH 7.9, 30 mM KCl, 0.1 mM EDTA, 1 mM DTT, 0.05% NP-40, 6.5% glycerol, 50 fmol probe, 20 min at room temperature; recombinant protein; protein details: His-Trx (Results), His (Methods, legend); label: 3' biotin
T1 sequence (looked up, limits assumed): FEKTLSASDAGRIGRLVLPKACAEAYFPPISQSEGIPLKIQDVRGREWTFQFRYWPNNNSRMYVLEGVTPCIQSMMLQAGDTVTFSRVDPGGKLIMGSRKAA

[2] = target: mutant HSI2 B3 domain (mB3HSI2) (Arabidopsis thaliana) (UniProt Q8W4L5); experiment: EMSA; conditions: 10 mM Tris pH 7.9, 30 mM KCl, 0.1 mM EDTA, 1 mM DTT, 0.05% NP-40, 6.5% glycerol, 50 fmol probe, 20 min at room temperature; recombinant protein; protein details: His; label: 3' biotin

| Sequence | binding result [1] | binding result [2] |
| --- | --- | --- |
| AATTAATACTATAATATATGCATGTAAAATCTTGTTTTTTCT (double strand) [RY2 probe] | binds more weakly | – |
| GTCCTCCACGTAATGCATGCATGCGTTATTTCTTTT (double strand) [RY1 probe] | – | no binding |
